PubChem BioAssay AID720505 | Drosophila RNAi Screening Center | 2013
Test: 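Genes needed for store-operated calcium entry in fly cells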 (primary screen). System: Drosophila S2R+ cells. Knock-down reagent: long dsRNA against Drosophila genes. Conditions: thapsigargin (2 µM) in calcium-free buffer to empty internal stores, then 2 mM calcium added back. Measured: 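Fluo-4 signal in 384-well plates read on a FLIPR after thapsigargin (2 µM, calcium-free) store depletion and 2 mM calcium add-back; unnormalised mean endpoint per well; screen run twice, selected wells retested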. Scale: calcium signal: higher = more calcium entry after store depletion. Active means: 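Knock-downs counted as hits when calcium entry dropped relative to STIM1 positive and Rho1 negative controls present on each plate; roughly 1500 genes called, with reductions of differing size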. Meaning of the calls: active = called as lowering calcium entry; inactive = not called.
The deposit covers about 20,000 reagents; below is an unselected part of those that have a named target and a result. In the full data, about 2,100 (10%) are marked active. 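Raw plate signals without normalisation; calls rest on control-based scores that were not deposited; replicate 2 separates called from uncalled poorly.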 The record does not give: the amount of reagent, the time to read-out.

vih (vihar) [SID104189570]: calcium signal, replicate 1 = 45.5; calcium signal, replicate 2 = 42.8; activity call = active
Obp8a (Odorant-binding protein 8a) [SID104197660]: calcium signal, replicate 1 = 89.3; calcium signal, replicate 2 = 86.3; activity call = inactive
CG1246 [SID104188067]: calcium signal, replicate 1 = 96; calcium signal, replicate 2 = 101; activity call = inactive
Patsas [SID104182767]: calcium signal, replicate 1 = 118; calcium signal, replicate 2 = 92.6; activity call = inactive
Lsm12a (LSM12 homolog a) [SID104199494]: calcium signal, replicate 1 = 114; calcium signal, replicate 2 = 91.9; activity call = inactive

In a second layout: 2 of the entries above
Gene,PubChem SID,"calcium signal, replicate 1","calcium signal, replicate 2",activity call
Patsas,SID104182767,118,92.6,inactive
Lsm12a (LSM12 homolog a),SID104199494,114,91.9,inactive

Next records:
ZnT77C (Zinc transporter 77C) [SID104191558]: calcium signal, replicate 1 = 116; calcium signal, replicate 2 = 131; activity call = inactive
ZnT77C (Zinc transporter 77C) [SID104191559]: calcium signal, replicate 1 = 113; calcium signal, replicate 2 = 204; activity call = inactive
CG13331 [SID104186158]: calcium signal, replicate 1 = 157; calcium signal, replicate 2 = 210; activity call = inactive
CG7394 [SID104190627]: calcium signal, replicate 1 = 98.7; calcium signal, replicate 2 = 85.6; activity call = inactive
botv [SID104185741]: calcium signal, replicate 1 = 111; calcium signal, replicate 2 = 120; activity call = inactive
CG15831 (retired record) [SID104200608]: calcium signal, replicate 1 = 205; calcium signal, replicate 2 = 83.9; activity call = inactive
mRpL52 (mitochondrial ribosomal protein L52) [SID104186377]: calcium signal, replicate 1 = 119; calcium signal, replicate 2 = 182; activity call = inactive
